Source: paper doi:10.1101/2025.01.07.631775
Results are given in words; binding and its absence hold for the method and conditions named. In cells and extracts the contact can be indirect. Binding calls can cover weak binding; strength is not graded here.

Target: OsMADS63-FLAG transiently expressed in rice protoplasts (rice (Oryza sativa)) (UniProt B7F466)
Assay: co-IP

**Q.** How did the binding turn out when “OsSIP1-HA transiently expressed in rice protoplasts (from UniProt Q10T66)” was run?
**A.** The binding was “binds”.
